PubChem BioAssay AID504764 | Drosophila RNAi Screening Center – 2011
In all, the deposit lists about 22,000 reagents; shown is an unselected part of those with a known target gene and a result. Of all reagents, 403 (1.9%) were called active. 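Unnormalised raw counts per well; ratio z-scores behind the hit calls and whether each hit raises or lowers signal are not deposited.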 Entries without a mark were called inactive. Reagents against one gene are numbered here. A plus sign joins genes that one reagent is predicted to hit. Not stated in the record: the amount of reagent.

Assay: 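Genome-wide screen for regulators of Notch-driven gene expression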 (primary screen)
Cell system: Drosophila Kc167 cells
Reagents: long dsRNA against Drosophila genes
Duration: about 5 days (4 days dsRNA, then 24 h after transfection)
Conditions: transfection of constitutively active membrane-tethered Notch lacking the extracellular domain, read 24 h later
Detection: 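Light from a Notch-responsive E(spl)m3 luciferase reporter under active Notch, with control-promoter and no-Notch reporter wells to normalise; raw counts from paired wells a and b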
Scale: induced reporter light, run 1, well a and induced reporter light, run 1, well b: higher = more light from the Notch target reporter with active Notch; control promoter light, run 1, well a and control promoter light, run 1, well b: higher = more light from the viral control promoter (cell number, transfection, viability); uninduced reporter light, run 1, well a: higher = more light from the Notch target reporter without active Notch
Rule for the call: 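Hit if the duplicate-averaged log2 ratio of induced to control-promoter light gives a plate-wise z beyond ±2, or induced to uninduced beyond ±1.8; weak-control or discordant-duplicate wells dropped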
Meaning of the calls: active = modifier hit (raised or lowered Notch signal); inactive = not a hit

For CG42537 (GeneID 8674074) the deposit lists induced reporter light, run 1, well a = 81095; induced reporter light, run 1, well b = 1.01e5; control promoter light, run 1, well a = 74580; control promoter light, run 1, well b = 73665; uninduced reporter light, run 1, well a = 2312.
For kek1 (GeneID 34688), the entry reads induced reporter light, run 1, well a = 1.55e5; induced reporter light, run 1, well b = 1.64e5; control promoter light, run 1, well a = 1.73e5; control promoter light, run 1, well b = 1.72e5; uninduced reporter light, run 1, well a = 13150.
Silencing of dpr16 (GeneID 40619) #1 came out at: induced reporter light, run 1, well a = 1.50e5; induced reporter light, run 1, well b = 1.26e5; control promoter light, run 1, well a = 1.11e5; control promoter light, run 1, well b = 1.21e5; uninduced reporter light, run 1, well a = 9320.
Depletion of dpr16 (GeneID 40619) #2 gave: induced reporter light, run 1, well a = 1.84e5; induced reporter light, run 1, well b = 2.14e5; control promoter light, run 1, well a = 3.41e5; control promoter light, run 1, well b = 2.84e5; uninduced reporter light, run 1, well a = 14600.
With knock-down of Rab14 (GeneID 34840), the record shows induced reporter light, run 1, well a = 1.66e5; induced reporter light, run 1, well b = 1.90e5; control promoter light, run 1, well a = 1.49e5; control promoter light, run 1, well b = 1.71e5; uninduced reporter light, run 1, well a = 16435.
After knock-down of Tsp26A (GeneID 33838) the results were induced reporter light, run 1, well a = 1.74e5; induced reporter light, run 1, well b = 1.19e5; control promoter light, run 1, well a = 1.78e5; control promoter light, run 1, well b = 1.51e5; uninduced reporter light, run 1, well a = 8935.
For Trs20 (GeneID 39769), the values are induced reporter light, run 1, well a = 1.33e5; induced reporter light, run 1, well b = 1.60e5; control promoter light, run 1, well a = 2.07e5; control promoter light, run 1, well b = 1.87e5; uninduced reporter light, run 1, well a = 10232.
Silencing of CG34243 (retired record) (GeneID 5740341) #1 resulted in: induced reporter light, run 1, well a = 90960; induced reporter light, run 1, well b = 93355; control promoter light, run 1, well a = 60355; control promoter light, run 1, well b = 43680; uninduced reporter light, run 1, well a = 17265.
After knock-down of CG34243 (retired record) (GeneID 5740341) #2, the screen gave induced reporter light, run 1, well a = 1.64e5; induced reporter light, run 1, well b = 1.55e5; control promoter light, run 1, well a = 2.04e5; control promoter light, run 1, well b = 2.42e5; uninduced reporter light, run 1, well a = 18735.
Against lectin-46Ca (GeneID 53523), the values are induced reporter light, run 1, well a = 2.20e5; induced reporter light, run 1, well b = 1.92e5; control promoter light, run 1, well a = 2.28e5; control promoter light, run 1, well b = 2.17e5; uninduced reporter light, run 1, well a = 17692.
CG15719 (GeneID 32249) showed induced reporter light, run 1, well a = 98010; induced reporter light, run 1, well b = 1.11e5; control promoter light, run 1, well a = 1.73e5; control promoter light, run 1, well b = 1.49e5; uninduced reporter light, run 1, well a = 7705.
shot (GeneID 36542) #1 gave induced reporter light, run 1, well a = 1.97e5; induced reporter light, run 1, well b = 2.26e5; control promoter light, run 1, well a = 1.99e5; control promoter light, run 1, well b = 1.97e5; uninduced reporter light, run 1, well a = 18888.
Knock-down of shot (GeneID 36542) #2 came out at: induced reporter light, run 1, well a = 1.88e5; induced reporter light, run 1, well b = 1.58e5; control promoter light, run 1, well a = 2.26e5; control promoter light, run 1, well b = 2.11e5; uninduced reporter light, run 1, well a = 16060.
shot (GeneID 36542) #3 scored induced reporter light, run 1, well a = 2.01e5; induced reporter light, run 1, well b = 1.50e5; control promoter light, run 1, well a = 1.72e5; control promoter light, run 1, well b = 1.49e5; uninduced reporter light, run 1, well a = 13200.
14-3-3zeta (GeneID 36059) scored induced reporter light, run 1, well a = 94360; induced reporter light, run 1, well b = 92765; control promoter light, run 1, well a = 92915; control promoter light, run 1, well b = 89685; uninduced reporter light, run 1, well a = 7400.
After knock-down of CG3328 (GeneID 37871) the results were induced reporter light, run 1, well a = 1.70e5; induced reporter light, run 1, well b = 1.85e5; control promoter light, run 1, well a = 1.81e5; control promoter light, run 1, well b = 1.61e5; uninduced reporter light, run 1, well a = 13325.
With knock-down of Ance-4 (GeneID 35909) the results were induced reporter light, run 1, well a = 1.37e5; induced reporter light, run 1, well b = 1.51e5; control promoter light, run 1, well a = 1.74e5; control promoter light, run 1, well b = 1.78e5; uninduced reporter light, run 1, well a = 14205.
Against Rtca (GeneID 31175) the deposit lists induced reporter light, run 1, well a = 2.00e5; induced reporter light, run 1, well b = 1.98e5; control promoter light, run 1, well a = 2.71e5; control promoter light, run 1, well b = 2.33e5; uninduced reporter light, run 1, well a = 12990.
Knock-down of eIF2Bdelta (GeneID 37706) resulted in: induced reporter light, run 1, well a = 1.55e5; induced reporter light, run 1, well b = 2.08e5; control promoter light, run 1, well a = 1.43e5; control promoter light, run 1, well b = 1.71e5; uninduced reporter light, run 1, well a = 12905.
Against eIF4B (GeneID 3355041), the entry reads induced reporter light, run 1, well a = 92850; induced reporter light, run 1, well b = 73130; control promoter light, run 1, well a = 88505; control promoter light, run 1, well b = 1.21e5; uninduced reporter light, run 1, well a = 10332.
Against w-cup (GeneID 34455) the deposit lists induced reporter light, run 1, well a = 1.95e5; induced reporter light, run 1, well b = 2.15e5; control promoter light, run 1, well a = 1.06e5; control promoter light, run 1, well b = 1.57e5; uninduced reporter light, run 1, well a = 20520.
Knock-down of CG13385 (GeneID 34164) came out at: induced reporter light, run 1, well a = 1.56e5; induced reporter light, run 1, well b = 1.78e5; control promoter light, run 1, well a = 87835; control promoter light, run 1, well b = 1.18e5; uninduced reporter light, run 1, well a = 19370.
After knock-down of CG31041 (GeneID 318567), the screen gave induced reporter light, run 1, well a = 1.47e5; induced reporter light, run 1, well b = 1.38e5; control promoter light, run 1, well a = 1.37e5; control promoter light, run 1, well b = 1.66e5; uninduced reporter light, run 1, well a = 12970.
CG31917 + Tfb5 #1 gave induced reporter light, run 1, well a = 1.80e5 (active); induced reporter light, run 1, well b = 1.51e5; control promoter light, run 1, well a = 2.79e5; control promoter light, run 1, well b = 2.38e5; uninduced reporter light, run 1, well a = 11820.
Depletion of CG31917 + Tfb5 #2 resulted in: induced reporter light, run 1, well a = 1.38e5; induced reporter light, run 1, well b = 1.32e5; control promoter light, run 1, well a = 1.77e5; control promoter light, run 1, well b = 1.59e5; uninduced reporter light, run 1, well a = 6720.

Entries above called active:
CG31917 + Tfb5 #1 → induced reporter light, run 1, well a = 1.80e5 (active); induced reporter light, run 1, well b = 1.51e5; control promoter light, run 1, well a = 2.79e5; control promoter light, run 1, well b = 2.38e5; uninduced reporter light, run 1, well a = 11820
